These are yes or no findings as the source states them, for the method shown. A result given as binding can be weak or reduced; the word gives no strength. Where a sequence is shown, tags or fusion partners need not be part of it.
Target: Gal4-GFZF (Gal4 DNA-binding domain fusion of GFZF) (D. melanogaster)
Experiment: DNA affinity purification with a DNA-tethered Gal4 fusion, western blot; bead-immobilised 121-bp housekeeping DRE promoter with 4xUAS sites first incubated with nuclear extract containing the Gal4-DBD fusion, extract removed, then nuclear extract containing TFIIA-L-AID-3xFLAG; sheared salmon sperm competitor DNA 600 ng to 1.6 μg per reaction; eluates blotted with a FLAG antibody

B1: TFIIA-L-AID-3xFLAG (endogenously C-terminally tagged TFIIA-L) (protein, UniProt P52654 1-366)
chain: MALCQTSVLKVYHAVIEDVITNVRDAFLDEGVDEQVLQEMKQVWRNKLLASKAVELSPDSGDGSHPPPIVANNPKSHKAANAKAKKAAAATAVTSHQHIGGNSSMSSLVGLKSSAGMAAGSGIRNGLVPIKQEVNSQNPPPLHPTSAASMMQKQQQAASSGQGSIPIVATLDPNRIMPVNITLPSPAGSASSESRVLTIQVPASALQENQLTQILTAHLISSIMSLPTTLASSVLQQHVNAALSSANHQKTLAAAKQLDGALDSSDEDESEESDDNIDNDDDDDLDKDDDEDAEHEDAAEEEPLNSEDDVTDEDSAEMFDTDNVIVCQYDKITRSRNKWKFYLKDGIMNMRGKDYVFQKSNGDAEW
  binding: binds

From PMC10183819
